Measurements reported in the supplement of paper PMC8728848.
This is one part of the list.

Key:
Experiment in all cases: glycan array binding signal (z-score within array); higher = stronger binding
Conditions in all cases: glycan notation: IUPAC condensed, linker removed
GlcNAc(b1-3)GalNAc = target: GlcNAc(b1-3)GalNAc
Outline: (§1)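 The Consortium for Functional Glycomics database supplied 3228 glycan arrays, of which those lacking an available protein sequence were dropped. The binding signal, a within-array Z-score, was averaged across arrays of the same protein sequence and across linkers. Negative scores can be read as non-binding.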

GlcNAc(b1-3)Man = target: GlcNAc(b1-3)Man
Outline: as §1

[1] = target: GlcNAc(b1-3)[GlcNAc(b1-4)][GlcNAc(b1-6)]GlcNAc
Outline: as §1

[2] = target: GlcNAc(b1-3)[GlcNAc(b1-6)]Gal(b1-4)GlcNAc
Outline: as §1

[3] = target: GlcNAc(b1-3)[GlcNAc(b1-6)]GalNAc
Outline: as §1

[4] = target: GlcNAc(b1-3)[GlcNAc(b1-6)]GlcNAc(b1-4)GlcNAc
Outline: as §1

[5] = target: GlcNAc(b1-4)Gal(b1-4)GlcNAc
Outline: as §1

GlcNAc(b1-4)GlcNAc = target: GlcNAc(b1-4)GlcNAc
Outline: as §1

[6] = target: GlcNAc(b1-4)GlcNAc(b1-4)GlcNAc
Outline: as §1

[7] = target: GlcNAc(b1-4)GlcNAc(b1-4)GlcNAc(b1-4)GlcNAc(b1-4)GlcNAc
Outline: as §1

[8] = target: GlcNAc(b1-4)GlcNAc(b1-4)GlcNAc(b1-4)GlcNAc(b1-4)GlcNAc(b1-4)GlcNAc
Outline: as §1

[9] = target: GlcNAc(b1-4)[GlcNAc(b1-6)]GalNAc
Outline: as §1

[10] = target: GlcNAc(b1-6)Gal(b1-4)GlcNAc
Outline: as §1

GlcNAc(b1-6)GalNAc = target: GlcNAc(b1-6)GalNAc
Outline: as §1

[11] = target: GlcNAc6S(b1-3)Gal(b1-4)GlcNAc
Outline: as §1

Kdn(a2-3)Gal(b1-3)GalNAc = target: Kdn(a2-3)Gal(b1-3)GalNAc
Outline: as §1

Kdn(a2-3)Gal(b1-3)GlcNAc = target: Kdn(a2-3)Gal(b1-3)GlcNAc
Outline: as §1

Kdn(a2-3)Gal(b1-4)Glc = target: Kdn(a2-3)Gal(b1-4)Glc
Outline: as §1

Kdn(a2-3)Gal(b1-4)GlcNAc = target: Kdn(a2-3)Gal(b1-4)GlcNAc
Outline: as §1

[12] = target: Kdn(a2-3)Gal(b1-4)[Fuc(a1-3)]GlcNAc
Outline: as §1

Kdn(a2-6)Gal(b1-4)GlcNAc = target: Kdn(a2-6)Gal(b1-4)GlcNAc
Outline: as §1

[13] = target: Man(a1-2)Man(a1-2)Man(a1-3)Man
Outline: as §1

[14] = target: Man(a1-2)Man(a1-2)Man(a1-6)[Man(a1-3)]Man
Outline: as §1

Man(a1-2)Man(a1-3)Man = target: Man(a1-2)Man(a1-3)Man
Outline: as §1

[15] = target: Man(a1-2)Man(a1-3)[Man(a1-2)Man(a1-6)]Man
Outline: as §1

[16] = target: Man(a1-2)Man(a1-3)[Man(a1-2)Man(a1-6)]Man(a1-6)[Man(a1-2)Man(a1-2)Man(a1-3)]Man
Outline: as §1

[17] = target: Man(a1-2)Man(a1-3)[Man(a1-2)Man(a1-6)]Man(a1-6)[Man(a1-2)Man(a1-2)Man(a1-3)]Man(b1-4)GlcNAc(b1-4)GlcNAc
Outline: as §1

[18] = target: Man(a1-2)Man(a1-3)[Man(a1-6)]Man(a1-6)[Man(a1-2)Man(a1-3)]Man(b1-4)GlcNAc(b1-4)GlcNAc
Outline: as §1

[19] = target: Man(a1-2)Man(a1-6)[Man(a1-3)]Man(a1-6)[Man(a1-2)Man(a1-2)Man(a1-3)]Man
Outline: as §1

[20] = target: Man(a1-2)Man(a1-6)[Man(a1-3)]Man(a1-6)[Man(a1-2)Man(a1-2)Man(a1-3)]Man(b1-4)GlcNAc(b1-4)GlcNAc
Outline: as §1

Man(a1-3)[Man(a1-6)]Man = target: Man(a1-3)[Man(a1-6)]Man
Outline: as §1

[21] = target: Man(a1-3)[Man(a1-6)]Man(a1-6)[Man(a1-2)Man(a1-3)]Man(b1-4)GlcNAc(b1-4)GlcNAc
Outline: as §1

[22] = target: Man(a1-3)[Man(a1-6)]Man(a1-6)[Man(a1-3)]Man
Outline: as §1

[23] = target: Man(a1-3)[Man(a1-6)]Man(a1-6)[Man(a1-3)]Man(b1-4)GlcNAc(b1-4)GlcNAc
Outline: as §1

[24] = target: Man(a1-3)[Man(a1-6)]Man(b1-4)GlcNAc(b1-4)GlcNAc
Outline: as §1

[25] = target: Man(a1-3)[Man(a1-6)]Man(b1-4)GlcNAc(b1-4)[Fuc(a1-6)]GlcNAc
Outline: as §1

Man(a1-6)Man = target: Man(a1-6)Man
Outline: as §1

Man(b1-4)GlcNAc = target: Man(b1-4)GlcNAc
Outline: as §1

MurNAc(b1-4)GlcNAc = target: MurNAc(b1-4)GlcNAc
Outline: as §1

Neu5Ac(a2-3)Gal = target: Neu5Ac(a2-3)Gal
Outline: as §1

[26] = target: Neu5Ac(a2-3)Gal(b1-3)GalNAc
Outline: as §1

[27] = target: Neu5Ac(a2-3)Gal(b1-3)GalNAc(b1-3)Gal(a1-4)Gal(b1-4)Glc
Outline: as §1

[28] = target: Neu5Ac(a2-3)Gal(b1-3)GalNAc(b1-3)Gal(b1-4)GlcNAc
Outline: as §1

[29] = target: Neu5Ac(a2-3)Gal(b1-3)GalNAc(b1-4)Gal(b1-4)Glc
Outline: as §1

[30] = target: Neu5Ac(a2-3)Gal(b1-3)GalNAc(b1-4)[Neu5Ac(a2-3)]Gal(b1-4)Glc
Outline: as §1

B1: Endo180d1-D4 (Homo sapiens), Q9UBG0 (protein)
chain: MGPGRPAPAPWPRHLLRCVLLLGCLHLGRPGAPGDAALPEPNVFLIFSHGLQGCLEAQGGQVRVTPACNTSLPAQRWKWVSRNRLFNLGTMQCLGTGWPGTNTTASLGMYECDREALNLRWHCRTLGDQLSLLLGARTSNISKPGTLERGDQTRSGQWRIYGSEEDLCALPYHEVYTIQGNSHGKPCTIPFKYDNQWFHGCTSTGREDGHLWCATTQDYGKDERWGFCPIKSNDCETFWDKDQLTDSCYQFNFQSTLSWREAWASCEQQGADLLSITEIHEQTYINGLLTGYSSTLWIGLNDLDTSGGWQWSDNSPLKYLNWESDQPDNPSEENCGVIRTESSGGWQNRDCSIALPYVCKKKPNATAEPTPPDRWANVKVECEPSWQPFQGHCYRLQAEKRSWQESKKACLRGGGDLVSIHSMAELEFITKQIKQEVEELWIGLNDLKLQMNFEWSDGSLVSFTHWHPFEPNNFRDSLEDCVTIWGPEGRWNDSPCNQSLPSICKKAGQLSQGAAEEDHGCRKGWTWHSPSCYWLGEDQVTYSEARRLCTDHGSQLVTITNRFEQAFVSSLIYNWEGEYFWTALQDLNSTGSFFWLSGDEVMYTHWNRDQPGYSRGGCVALATGSAMGLWEVKNCTSFRARYICRQSLGTPVTPELPGPDPTPSLTGSCPQGWASDTKLRYCYKVFSSERLQDKKSWVQAQGACQELGAQLLSLASYEEEHFVANMLNKIFGESEPEIHEQHWFWIGLNRRDPRGGQSWRWSDGVGFSYHNFDRSRHDDDDIRGCAVLDLASLQWVAMQCDTQLDWICKIPRGTDVREPDDSPQGRREWLRFQEAEYKFFEHHSTWAQAQRICTWFQAELTSVHSQAELDFLSHNLQKFSRAQEQHWWIGLHTSESDGRFRWTDGSIINFISWAPGKPRPVGKDKKCVYMTASREDWGDQRCLTALPYICKRSNVTKETQPPDLPTTALGGCPSDWIQFLNKCFQVQGQEPQSRVKWSEAQFSCEQQEAQLVTITNPLEQAFITASLPNVTFDLWIGLHASQRDFQWVEQEPLMYANWAPGEPSGPSPAPSGNKPTSCAVVLHSPSAHFTGRWDDRSCTEETHGFICQKGTDPSLSPSPAALPPAPGTELSYLNGTFRLLQKPLRWHDALLLCESHNASLAYVPDPYTQAFLTQAARGLRTPLWIGLAGEEGSRRYSWVSEEPLNYVGWQDGEPQQPGGCTYVDVDGAWRTTSCDTKLQGAVCGVSSGPPPPRRISYHGSCPQGLADSAWIPFREHCYSFHMELLLGHKEARQRCQRAGGAVLSILDEMENVFVWEHLQSYEGQSRGAWLGMNFNPKGGTLVWQDNTAVNYSNWGPPGLGPSMLSHNSCYWIQSNSGLWRPGACTNITMGVVCKLPRAEQSSFSPSALPENPAALVVVLMAVLLLLALLTAALILYRRRQSIERGAFEGARYSRSSSSPTEATEKNILVSDMEMNEQQE
- glycan array binding signal (z-score) (GlcNAc(b1-3)GalNAc): -0.261
- glycan array binding signal (z-score) (GlcNAc(b1-3)Man): 0.323
- glycan array binding signal (z-score) [1]: -0.344
- glycan array binding signal (z-score) [2]: -0.012
- glycan array binding signal (z-score) [3]: -0.079
- glycan array binding signal (z-score) [4]: -0.108
- glycan array binding signal (z-score) [5]: -0.605
- glycan array binding signal (z-score) (GlcNAc(b1-4)GlcNAc): -0.441
- glycan array binding signal (z-score) [6]: -0.355
- glycan array binding signal (z-score) [7]: -0.159
- glycan array binding signal (z-score) [8]: -0.257
- glycan array binding signal (z-score) [9]: -1.12
- glycan array binding signal (z-score) [10]: 0.095
- glycan array binding signal (z-score) (GlcNAc(b1-6)GalNAc): -0.554
- glycan array binding signal (z-score) [11]: -0.181
- glycan array binding signal (z-score) (Kdn(a2-3)Gal(b1-3)GalNAc): 0.105
- glycan array binding signal (z-score) (Kdn(a2-3)Gal(b1-3)GlcNAc): 0.173
- glycan array binding signal (z-score) (Kdn(a2-3)Gal(b1-4)Glc): -1.02
- glycan array binding signal (z-score) (Kdn(a2-3)Gal(b1-4)GlcNAc): 0.45
- glycan array binding signal (z-score) [12]: -2.97
- glycan array binding signal (z-score) (Kdn(a2-6)Gal(b1-4)GlcNAc): 0.204
- glycan array binding signal (z-score) [13]: -0.417
- glycan array binding signal (z-score) [14]: -0.05
- glycan array binding signal (z-score) (Man(a1-2)Man(a1-3)Man): -0.067
- glycan array binding signal (z-score) [15]: 0.123
- glycan array binding signal (z-score) [16]: 0.575
- glycan array binding signal (z-score) [17]: -0.678
- glycan array binding signal (z-score) [18]: -0.036
- glycan array binding signal (z-score) [19]: 1.1
- glycan array binding signal (z-score) [20]: -0.491
- glycan array binding signal (z-score) (Man(a1-3)[Man(a1-6)]Man): -0.357
- glycan array binding signal (z-score) [21]: -0.787
- glycan array binding signal (z-score) [22]: 0.364
- glycan array binding signal (z-score) [23]: -1.22
- glycan array binding signal (z-score) [24]: -0.209
- glycan array binding signal (z-score) [25]: 0.638
- glycan array binding signal (z-score) (Man(a1-6)Man): -0.201
- glycan array binding signal (z-score) (Man(b1-4)GlcNAc): -0.742
- glycan array binding signal (z-score) (MurNAc(b1-4)GlcNAc): -0.451
- glycan array binding signal (z-score) (Neu5Ac(a2-3)Gal): -1.18
- glycan array binding signal (z-score) [26]: 0.233
- glycan array binding signal (z-score) [27]: 0.142
- glycan array binding signal (z-score) [28]: 0.173
- glycan array binding signal (z-score) [29]: -3.76
- glycan array binding signal (z-score) [30]: -0.22
